Test results published in US20240190950A1, “METHOD OF TREATING DISEASES USING GREMLIN1 ANTAGONISTS” (SHANGHAI JIAO TONG UNIVERSITY, priority 2021, published 2024).
No constants are given. Whether binding was seen depends on the method and setting. For part of these data: Binding seen in cells or lysates may run through a third protein. Some binding calls cover weakened binding; strength is not graded here.

By UniProt entry, the sequences of proteins in these tests, tags left out. Where a name states a change or a piece, a line headed by the entry shows the natural chain unless it says otherwise.
UniProt P11362: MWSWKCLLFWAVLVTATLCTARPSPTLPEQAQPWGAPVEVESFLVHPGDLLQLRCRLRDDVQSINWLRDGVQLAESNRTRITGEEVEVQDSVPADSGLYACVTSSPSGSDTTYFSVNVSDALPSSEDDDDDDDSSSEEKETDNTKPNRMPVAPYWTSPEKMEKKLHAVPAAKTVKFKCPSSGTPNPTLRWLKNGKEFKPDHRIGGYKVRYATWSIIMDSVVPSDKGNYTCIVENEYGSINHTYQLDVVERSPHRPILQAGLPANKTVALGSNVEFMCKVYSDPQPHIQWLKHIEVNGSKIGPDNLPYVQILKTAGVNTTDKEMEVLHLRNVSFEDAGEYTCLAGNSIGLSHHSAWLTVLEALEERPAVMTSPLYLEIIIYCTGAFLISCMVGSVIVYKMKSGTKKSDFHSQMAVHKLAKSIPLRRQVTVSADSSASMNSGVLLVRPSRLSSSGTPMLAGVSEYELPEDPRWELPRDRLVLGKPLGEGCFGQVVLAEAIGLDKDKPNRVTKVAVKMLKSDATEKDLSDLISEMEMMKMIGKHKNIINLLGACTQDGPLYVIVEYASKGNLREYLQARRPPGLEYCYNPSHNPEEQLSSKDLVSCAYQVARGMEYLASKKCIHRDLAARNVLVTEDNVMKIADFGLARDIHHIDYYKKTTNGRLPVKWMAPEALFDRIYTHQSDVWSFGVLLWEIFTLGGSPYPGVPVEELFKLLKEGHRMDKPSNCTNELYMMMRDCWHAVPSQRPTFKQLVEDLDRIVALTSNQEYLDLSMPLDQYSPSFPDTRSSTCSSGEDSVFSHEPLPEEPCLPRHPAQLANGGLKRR

What was measured:
soluble FGFR1 (human) [1] = biological target: soluble FGFR1 (human) (UniProt P11362); assay: pull-down (Fc-IP) of FGFR1-Fc with Gremlin1 and rising FGF1, immunoblot
[2] = biological target: FGFR1 (protein used in the ForteBio and ELISA assays) (human) (UniProt P11362); assay: ELISA on FGFR1, biotin-labelled ligand in rising concentration
soluble FGFR1 (human) [3] = biological target: soluble FGFR1 (human) (UniProt P11362); assay: pull-down (Fc-IP) of FGFR1-Fc with FGF1 and rising Gremlin1, immunoblot
soluble FGFR1 (human) [4] = biological target: soluble FGFR1 (human) (UniProt P11362); assay: pull-down of purified proteins (Gremlin1-his, FGFR1-Fc), immunoblot
[5] = biological target: FGFR1 (protein used in the ForteBio and ELISA assays) (human) (UniProt P11362); assay: Fortebio, co-immunofluorescent staining and co-immunoprecipitation; FGF1 added as possible competitor
[6] = biological target: FGFR1 (protein used in the ForteBio and ELISA assays) (human) (UniProt P11362); assay: Fortebio (R), co-immunostaining (S) and pull-down (T, U); FGF1 added as possible competitor
[7] = biological target: FGFR1 (protein used in the ForteBio and ELISA assays) (human) (UniProt P11362); assay: ELISA
FGFR1-R248Q (human) = FGFR1-R248Q (human) (UniProt P11362); assay: co-immunoprecipitation
FGFR1-C176G (human) = FGFR1-C176G (human) (UniProt P11362); assay: co-immunoprecipitation

Measured: binding

B1: Gremlin1 (human gremlin 1, hGREM1) (ligand)
chain: KKKGSQGAIPPPDKAQHNDSEQTQSPQQPGSRNRGRGQGRGTAMPGEEVLESSQEALHVTERKYLKRDWCKTQPLKQTIHEEGCNSRTIINRFCYGQCNSFYIPRHIRKEEGSFQSCSFCKPKKFTTMMVTLNCPELQPPTKKKRVTRVKQCRCISIDLD
modifications: biotin label in the ForteBio assay (site not stated)
binds: all assays above
